The values that follow come from publication PMC12650660 (Biomolecules, 2025).

This series is described as follows: general procedure: Fmoc solid-phase peptide synthesis; preloaded HN-L-Pro-2-CTC resin (0.82 mmol/g); HATU/DIPEA; DIC/DMAP for on-resin esterification. The note with it: whole synthesis; for final HPLC purity: analytical HPLC, 214 nm.

Consider “simplified malacidin, Gly6 insertion, D-Asp9 L-Asp9”, for which the isolated yield is listed as 1.9% and the “final HPLC purity” value was determined as 91%.
Consider “simplified malacidin, Gly9 insertion, D-Asp8 L-Asp8”, for which the isolated yield stood at 1.6% and the “final HPLC purity” value was 86%.
